Assay results published in patent US20050063948A1.
Results are given in words; binding and its absence hold for the method and conditions named. Some results given as binding are weak or reduced against the parent protein; the word gives no strength. Where a sequence is shown, tags or fusion partners need not be part of it.

Chains of the proteins cited; added tags and fusions are not shown. Lines headed by an entry give the natural chain unless they say otherwise; changes in a name come on top.
UniProt P06756: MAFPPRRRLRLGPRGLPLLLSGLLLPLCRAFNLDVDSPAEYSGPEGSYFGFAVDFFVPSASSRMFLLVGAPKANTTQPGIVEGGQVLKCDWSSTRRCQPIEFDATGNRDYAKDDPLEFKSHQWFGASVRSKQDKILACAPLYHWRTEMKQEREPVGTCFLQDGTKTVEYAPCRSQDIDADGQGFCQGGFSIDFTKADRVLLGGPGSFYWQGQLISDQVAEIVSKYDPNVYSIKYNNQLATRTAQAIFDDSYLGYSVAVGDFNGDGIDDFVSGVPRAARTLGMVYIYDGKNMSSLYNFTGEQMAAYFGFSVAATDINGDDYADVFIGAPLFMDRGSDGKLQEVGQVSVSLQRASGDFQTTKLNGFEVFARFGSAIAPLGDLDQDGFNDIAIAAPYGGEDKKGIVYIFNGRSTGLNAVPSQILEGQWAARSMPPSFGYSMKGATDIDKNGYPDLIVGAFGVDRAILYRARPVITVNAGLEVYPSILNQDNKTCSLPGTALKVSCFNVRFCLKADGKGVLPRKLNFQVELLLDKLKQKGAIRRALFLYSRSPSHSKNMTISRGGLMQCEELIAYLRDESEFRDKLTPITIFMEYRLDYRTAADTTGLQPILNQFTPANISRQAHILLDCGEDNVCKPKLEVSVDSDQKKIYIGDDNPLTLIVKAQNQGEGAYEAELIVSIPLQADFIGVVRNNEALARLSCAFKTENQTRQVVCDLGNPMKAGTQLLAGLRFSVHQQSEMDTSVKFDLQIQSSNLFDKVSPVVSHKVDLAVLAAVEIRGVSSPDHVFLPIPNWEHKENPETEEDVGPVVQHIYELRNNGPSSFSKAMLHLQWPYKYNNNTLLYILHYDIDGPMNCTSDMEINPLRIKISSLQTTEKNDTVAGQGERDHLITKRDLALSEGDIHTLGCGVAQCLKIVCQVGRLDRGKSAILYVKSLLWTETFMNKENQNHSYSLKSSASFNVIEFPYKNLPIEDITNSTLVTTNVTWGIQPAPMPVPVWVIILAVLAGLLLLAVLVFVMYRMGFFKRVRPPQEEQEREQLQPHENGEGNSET
UniProt P05106: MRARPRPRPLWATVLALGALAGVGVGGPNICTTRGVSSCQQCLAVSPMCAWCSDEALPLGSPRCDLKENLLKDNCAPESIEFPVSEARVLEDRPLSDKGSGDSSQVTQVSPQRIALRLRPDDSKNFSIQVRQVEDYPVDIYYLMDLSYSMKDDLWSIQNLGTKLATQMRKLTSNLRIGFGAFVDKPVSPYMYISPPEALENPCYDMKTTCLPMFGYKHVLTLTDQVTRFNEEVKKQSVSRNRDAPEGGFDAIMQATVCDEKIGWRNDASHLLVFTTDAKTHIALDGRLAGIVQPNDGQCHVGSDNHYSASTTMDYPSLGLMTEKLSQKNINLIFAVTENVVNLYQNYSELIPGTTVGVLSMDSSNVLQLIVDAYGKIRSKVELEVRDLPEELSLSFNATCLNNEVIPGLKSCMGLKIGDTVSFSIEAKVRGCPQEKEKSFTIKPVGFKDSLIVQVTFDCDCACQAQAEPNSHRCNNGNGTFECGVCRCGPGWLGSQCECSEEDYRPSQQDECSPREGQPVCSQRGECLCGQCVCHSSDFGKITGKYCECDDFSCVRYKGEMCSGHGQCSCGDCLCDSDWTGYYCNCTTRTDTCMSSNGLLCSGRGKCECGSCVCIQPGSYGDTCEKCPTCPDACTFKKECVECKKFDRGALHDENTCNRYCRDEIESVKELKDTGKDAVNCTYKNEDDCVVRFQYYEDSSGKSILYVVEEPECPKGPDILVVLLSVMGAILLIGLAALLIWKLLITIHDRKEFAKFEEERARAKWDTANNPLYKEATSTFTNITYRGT

Target: αvβ3 integrin on the surface of M21 human melanoma cells (human) (UniProt P06756+P05106)
Test: immunofluorescence on αvβ3-positive M21 cells, detected with anti-mouse IL-12 p40 antibody and FITC secondary

- binding: binds
B1: mrIL-12vp (murine recombinant IL-12 with the RGD-4C vascular homing peptide fused to the C-terminus of the p35 subunit, co-expressed with p40) (protein, mouse)
chain 1: RVIPVSGPARCLSQSRNLLKTTDDMVKTAREKLKHYSCTAEDIDHEDITRDQTSTLKTCLPLELHKNESCLATRETSSTTRGSCLPPQKTSLMMTLCLGSIYEDLKMYQTEFQAINAALQNHNHQQIILDKGMLVAIDELMQSLNHNGETLRQKPPVGEADPYRVKMKLCILLHAFSTRVVTINRVMGYLSSACDCRGDCFC
chain 2: MWELEKDVYVVEVDWTPDAPGETVNLTCDTPEEDDITWTSDQRHGVIGSGKTLTITVKEFLDAGQYTCHKGGETLSHSHLLLHKKENGIWSTEILKNFKNKTFLKCEAPNYSGRFTCSWLVQRNMDLKFNIKSSSSSPDSRAVTCGMASLSAEKVTLDQRDYEKYSVSCQEDVTCPTAEETLPIELALEARQQNKYENYSTSFFIRDIIKPDPPKNLQMKPLKNSQVEVSWEYPDSWSTPHSYFSLKFFVRIQRKKEKMKETEEGCNQKGAFLVEKTSTEVQCKGGNVCVQAQDRYYNSSCSKWACVPCRVRS
